Results of single-concentration screens

Protein sequences, listed by entry. Tags and fused reporters are not part of them. Residues count along the entry.
UniProt Q8IDJ8, 1-583: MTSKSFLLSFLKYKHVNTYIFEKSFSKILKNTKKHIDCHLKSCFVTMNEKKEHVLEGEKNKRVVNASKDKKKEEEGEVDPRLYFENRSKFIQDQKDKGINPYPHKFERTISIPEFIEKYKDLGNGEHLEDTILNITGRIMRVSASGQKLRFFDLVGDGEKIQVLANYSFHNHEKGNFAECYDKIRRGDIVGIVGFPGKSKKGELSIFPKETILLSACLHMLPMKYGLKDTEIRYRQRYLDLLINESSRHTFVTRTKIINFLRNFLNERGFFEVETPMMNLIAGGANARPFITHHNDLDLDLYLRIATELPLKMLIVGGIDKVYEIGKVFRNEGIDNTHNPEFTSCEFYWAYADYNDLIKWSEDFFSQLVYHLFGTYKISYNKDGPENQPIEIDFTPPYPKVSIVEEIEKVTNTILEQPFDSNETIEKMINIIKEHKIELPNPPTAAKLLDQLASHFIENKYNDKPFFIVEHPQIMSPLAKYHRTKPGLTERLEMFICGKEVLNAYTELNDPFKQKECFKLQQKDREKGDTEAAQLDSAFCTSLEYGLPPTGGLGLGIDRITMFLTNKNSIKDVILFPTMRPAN
UniProt Q4DA54, 1-478: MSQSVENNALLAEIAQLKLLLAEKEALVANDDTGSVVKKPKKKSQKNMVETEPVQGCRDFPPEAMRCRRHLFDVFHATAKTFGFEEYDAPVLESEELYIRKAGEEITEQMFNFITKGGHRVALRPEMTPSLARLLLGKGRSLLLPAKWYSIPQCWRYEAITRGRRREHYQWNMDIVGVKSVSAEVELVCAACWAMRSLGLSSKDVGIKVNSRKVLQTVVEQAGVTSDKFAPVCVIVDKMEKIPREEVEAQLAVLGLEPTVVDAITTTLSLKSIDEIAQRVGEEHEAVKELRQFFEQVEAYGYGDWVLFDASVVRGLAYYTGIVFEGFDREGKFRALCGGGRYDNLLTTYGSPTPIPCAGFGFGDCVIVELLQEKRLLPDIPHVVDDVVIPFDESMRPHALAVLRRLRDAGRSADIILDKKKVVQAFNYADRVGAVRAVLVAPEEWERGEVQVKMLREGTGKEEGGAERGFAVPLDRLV
UniProt I6X8D2, whole entry: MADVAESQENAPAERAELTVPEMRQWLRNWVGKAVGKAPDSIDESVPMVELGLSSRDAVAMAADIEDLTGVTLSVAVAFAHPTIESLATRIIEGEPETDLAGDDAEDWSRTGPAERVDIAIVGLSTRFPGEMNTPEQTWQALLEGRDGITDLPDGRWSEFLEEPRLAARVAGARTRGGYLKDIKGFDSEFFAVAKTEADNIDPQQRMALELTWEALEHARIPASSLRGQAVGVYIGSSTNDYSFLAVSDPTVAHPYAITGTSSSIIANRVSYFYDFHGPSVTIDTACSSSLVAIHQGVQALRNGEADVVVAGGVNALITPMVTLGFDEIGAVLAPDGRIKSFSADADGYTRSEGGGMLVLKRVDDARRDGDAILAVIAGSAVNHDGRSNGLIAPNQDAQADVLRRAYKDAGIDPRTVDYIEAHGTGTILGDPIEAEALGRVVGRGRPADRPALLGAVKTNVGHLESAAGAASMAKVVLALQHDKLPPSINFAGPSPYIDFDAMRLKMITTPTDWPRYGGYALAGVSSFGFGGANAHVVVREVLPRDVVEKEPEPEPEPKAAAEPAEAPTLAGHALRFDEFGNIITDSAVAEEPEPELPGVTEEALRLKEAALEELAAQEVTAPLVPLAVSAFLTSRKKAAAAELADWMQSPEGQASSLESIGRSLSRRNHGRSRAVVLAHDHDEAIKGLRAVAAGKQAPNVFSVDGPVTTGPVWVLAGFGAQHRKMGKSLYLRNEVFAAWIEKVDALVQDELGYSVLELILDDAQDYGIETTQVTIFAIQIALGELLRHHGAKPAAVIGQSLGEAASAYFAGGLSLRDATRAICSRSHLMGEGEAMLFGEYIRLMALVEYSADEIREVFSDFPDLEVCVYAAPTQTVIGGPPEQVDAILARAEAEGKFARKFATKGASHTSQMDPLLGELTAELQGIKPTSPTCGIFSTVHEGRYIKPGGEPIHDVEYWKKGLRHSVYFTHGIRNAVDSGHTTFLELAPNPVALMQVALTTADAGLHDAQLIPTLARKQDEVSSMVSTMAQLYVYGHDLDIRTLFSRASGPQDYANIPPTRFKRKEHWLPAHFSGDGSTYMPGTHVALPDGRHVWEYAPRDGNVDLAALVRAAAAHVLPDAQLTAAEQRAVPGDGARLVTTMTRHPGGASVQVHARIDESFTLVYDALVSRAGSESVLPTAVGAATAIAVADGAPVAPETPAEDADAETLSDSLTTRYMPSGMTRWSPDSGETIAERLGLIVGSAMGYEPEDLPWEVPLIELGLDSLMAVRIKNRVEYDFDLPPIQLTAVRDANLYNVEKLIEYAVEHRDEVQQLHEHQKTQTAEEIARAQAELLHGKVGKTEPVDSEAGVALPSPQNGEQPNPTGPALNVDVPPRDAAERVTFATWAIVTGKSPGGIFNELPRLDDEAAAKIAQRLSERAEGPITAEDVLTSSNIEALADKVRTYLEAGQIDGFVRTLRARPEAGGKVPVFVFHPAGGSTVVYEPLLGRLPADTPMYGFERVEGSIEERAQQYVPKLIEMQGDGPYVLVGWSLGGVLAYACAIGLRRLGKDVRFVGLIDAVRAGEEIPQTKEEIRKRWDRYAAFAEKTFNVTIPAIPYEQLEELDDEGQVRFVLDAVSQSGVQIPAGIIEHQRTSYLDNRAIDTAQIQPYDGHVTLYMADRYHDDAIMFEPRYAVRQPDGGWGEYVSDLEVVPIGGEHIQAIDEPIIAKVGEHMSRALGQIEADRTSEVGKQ

From ChEMBL document CHEMBL3988442, “University of Dundee, Small-Polar-MMV Screening Library” (2021).

The filed quantity is “Percent Effect” (%).
The controls that fix the scale are not given in the record; negative values are as filed.
Compounds were drawn at random from those tested, without regard to their results.
Two or more numbers in one place are separate tests of the same structure; such repeats can differ widely.
A dash means the value is not listed here; it may have been measured.

A: 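Enzyme assay of the cytosolic lysyl-tRNA synthetase in 384-well plates, read by luminescence. Target: Lysine-tRNA ligase, Plasmodium falciparum 3D7 (UniProt Q8IDJ8). Concentration: 30 µM. Higher reads as stronger inhibition, judged from the few compounds that gave an IC50. Size under these conditions: about 69,000 compounds, about 49 of them at 50% or above in at least one test.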
B: 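Histidine-tRNA ligase, Trypanosoma cruzi CL Brener (UniProt Q4DA54). Enzyme assay of histidyl-tRNA synthetase; the read-out is not stated. Tested at 30 µM. Higher reads as stronger inhibition (inferred: compounds with an IC50 in retests scored well above the rest). Of about 69,000 compounds tested this way, about 31 (0.045%) reached 50% or more in at least one test.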
C: 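Cell assay of Leishmania donovani living inside macrophages; the read-out is not stated. Compounds at 30 µM. Higher reads as stronger inhibition (inferred: compounds with an IC50 in retests scored well above the rest). About 69,000 compounds were tested under these conditions; 1.5% (about 1,000) showed 50% or more at least once.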
D: 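Enzyme assay of the thioesterase domain of polyketide synthase 13; the read-out is not stated. Target: Polyketide synthase Pks13, Mycobacterium tuberculosis (UniProt I6X8D2). Compounds at 30 µM. Higher reads as stronger inhibition (inferred from which compounds were picked for retests). About 67,000 compounds were tested under these conditions; 0.46% (about 300) showed 50% or more at least once.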

CCOc1cc(C)nc(N2CCN(C(=O)c3ccncc3)CC2)n1 read A: -0.8568%; B: 2.339%; C: -14.29%; D: -8.35%.
c1cncc(NCCNC2CSCCSC2)c1 read A: 4.979%; B: 11.34%; C: 11.93%; D: -9.298%.
O=C(COc1ccccc1)N1C[C@@H](O)[C@H](N2CCCC2)C1.O=CO read C: 3.352%.
O=C(O)c1ccnc2c(Br)cccc12 read A: 5.717%; B: 3.097%; C: 31.55%; D: -26.04%.
O=C(c1ccc[nH]1)N1CCCn2c(nnc2Cn2cccn2)C1 read A: 3.664%; B: 7.263%; C: 19.46%; D: 15.62%.
CCN(Cc1cnn(C)c1)C[C@H]1CC[C@@H](Cc2ccc(OC)nc2)O1 read A: 0.5644%; B: 1.657%; C: 19.43%; D: -34.49%.
[H][C@]12CC[C@@]3(N=C(c4ccccc4)NC3=O)[C@@]1([H])CN(C(=O)N1CCCC1)C2 read C: -34.04%.
CC(=O)Nc1ccc(Oc2cc(C)nc(C3CCCNC3)c2)cc1 (configuration not stated) read A: 1.46%; B: 7.345%; D: -2.95%.
Cc1ccc(CN2C[C@@H]3CCCO[C@@H]3[C@H](NC(=O)CC3CC3)C2)s1 read A: 9.361%; B: 7.843%; D: -37.51%.
Cc1nnc(CN2CCCC(c3noc(C4CC4)n3)C2)o1 (configuration not stated) read A: -0.1623%; B: 4.36%; C: 21.19%; D: 2.698%.
COCCNC(=O)c1cc(-n2cccc2)ccc1Cl read A: 4.903%; B: 1.22%; C: -0.2588% & 18.75%; D: 4.02%.
CC1CN(Cc2noc(C3CC3)n2)CCN1Cc1nccn1C (configuration not stated) read A: 5.321%; B: -1.504%; C: 5.565%; D: -24.93%.
CN(C)CCn1c(=O)oc2ccc(NC(=O)N3CCCCCC3)cc21 read A: 6.793%; B: 13.33%; C: 9.639%; D: 6.427%.
CS(=O)(=O)CC(=O)N1C[C@H]2CCC[C@@]2(COCc2ccccn2)C1 read A: 5.181%; B: 0.5525%; D: -16.18%.
Cc1nccn1CC1CCCN(C(=O)c2cnn(C)c2)C1 (configuration not stated) read A: 3.895%; B: 4.52%; C: 9.631% & 10.1%; D: 12.41%.
CCOC1(C)C(=O)c2ccccc2N1Nc1ccccc1C(=O)CC (configuration not stated) read A: 1.251%; B: 3.727%; C: 19.56%; D: -223.2%.
Cn1ccnc(Nc2ccc3c(c2)CCN3C(=O)c2ccoc2)c1=O read A: 2.228%; B: 3.448%; C: 19.27%; D: 4.892%.
CC(=O)N1CCC(NC(=O)NCCCc2cn[nH]c2C)CC1 read A: 2.618%; B: 4.712%; C: -22.36%; D: -10.08%.
CCc1nc(C)cc(N2CCCC(C(=O)c3ccc(OC)cc3C)C2)n1 (configuration not stated) read A: 7.773%; B: 16.16%; C: 50.79%; D: -18.08%.
Cc1nc(CN2CCCn3cnc(COCC4CC4)c3C2)cs1.O=C(O)C(F)(F)F read C: 18.17%.
[H][C@@]12CS(=O)(=O)C[C@]1([H])N(C(=O)c1cc[nH]n1)CCN2CCC read C: 12.91%.
COc1cccc(C2CN(CCc3ccncc3)CCO2)c1 (configuration not stated) read A: -0.6178%; B: 3.96%; C: -14.01%; D: 7.09%.
COc1ccc(OCc2sc(C3(O)CCCNCC3)nc2C)cc1 (configuration not stated) read A: 4.937%; B: 2.703%; D: -28.08%.
N#Cc1cccnc1NCCNC(=O)N1CCCC(C(F)(F)F)C1 (configuration not stated) read A: -4.556%; B: 0.8333%; C: 4.952%; D: 36.12%.
CCN1CCOC(CNCc2csc(C)n2)C1 (configuration not stated) read A: -1.065%; B: 3.429%; C: 34.92%; D: -15.36%.
CCc1cc(C(F)(F)F)c2c(C3CCN(C(=O)COC)CC3)noc2n1 read A: 1.042%; B: 2.996%; C: 12.02%; D: 2.533%.
CS(=O)(=O)c1ccc(NCc2ccc(F)cc2)cn1 read A: 1.059%; B: 7.006%; C: 2.293%; D: -37.8%.
Cc1cc(C(=O)N2C[C@@H]3COC[C@]3(c3nnc(C(C)C)o3)C2)on1 read A: 2.746%; B: 0.9901%; D: -36.6%.
Cc1nc(COC[C@@H]2CC[C@H]3[C@H](CCN3c3ccccn3)O2)cs1 read A: 5.774%; B: 4.294%; D: 1.726%.

For reference, 3 entries once more:

structure	A	B	C	D
CCOc1cc(C)nc(N2CCN(C(=O)c3ccncc3)CC2)n1	-0.8568%	2.339%	-14.29%	-8.35%
CCN(Cc1cnn(C)c1)C[C@H]1CC[C@@H](Cc2ccc(OC)nc2)O1	0.5644%	1.657%	19.43%	-34.49%
Cc1ccc(CN2C[C@@H]3CCCO[C@@H]3[C@H](NC(=O)CC3CC3)C2)s1	9.361%	7.843%	-	-37.51%